PMC11146434, “Mitigation of TDP-43 toxic phenotype by an RGNEF fragment in amyotrophic lateral sclerosis models” (Brain, 2023)
These are yes or no findings as the source states them, for the method shown. For some of these results: Binding seen in cells or lysates may run through a third protein. Some binding calls cover weakened binding; strength is not graded here. For some of these results: Where a sequence is shown, tags or fusion partners need not be part of it.

The chains behind the UniProt entries cited, without tags or fusion partners. Where a name states a change or a piece, a line headed by the entry shows the natural chain unless it says otherwise.
UniProt Q13148: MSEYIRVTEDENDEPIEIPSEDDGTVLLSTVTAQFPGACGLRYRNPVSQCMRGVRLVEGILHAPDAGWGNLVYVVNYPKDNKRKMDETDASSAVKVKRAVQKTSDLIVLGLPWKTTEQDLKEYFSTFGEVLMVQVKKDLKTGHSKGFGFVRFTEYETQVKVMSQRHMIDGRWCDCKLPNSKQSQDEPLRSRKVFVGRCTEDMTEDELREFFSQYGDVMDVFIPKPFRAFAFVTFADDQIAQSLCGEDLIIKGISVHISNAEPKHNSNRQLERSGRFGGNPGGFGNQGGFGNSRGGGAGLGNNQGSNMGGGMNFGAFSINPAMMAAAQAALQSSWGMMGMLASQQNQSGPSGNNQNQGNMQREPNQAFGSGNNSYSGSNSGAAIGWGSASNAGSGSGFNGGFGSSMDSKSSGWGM

How the values were obtained:
[1] = target: T1, His-MBP-RGNEF^1–275 (human, UniProt Q8N1W1 1-275); test: SPR; His-MBP-RGNEF^1–275 amine-coupled on a carboxymethyl dextran chip; TDP-43 fragments as analytes; 1× PBS, 0.1% Tween-20; 22°C; both purified
T1 construct: Detailed purification protocol is in the Supplementary Methods; also called His-NF242; NF242 (in the SPR experiments); source: E. coli, purified (Ni-IMAC); not shown: MBP, N-terminal, kept
T1 sequence (looked up): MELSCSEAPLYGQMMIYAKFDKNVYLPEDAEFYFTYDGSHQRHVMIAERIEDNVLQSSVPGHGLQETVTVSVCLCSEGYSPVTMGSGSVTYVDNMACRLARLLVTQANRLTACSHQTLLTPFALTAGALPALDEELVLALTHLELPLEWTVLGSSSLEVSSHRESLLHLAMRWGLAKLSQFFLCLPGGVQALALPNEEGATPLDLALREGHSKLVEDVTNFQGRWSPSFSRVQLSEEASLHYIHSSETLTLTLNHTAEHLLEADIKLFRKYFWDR

[2] = target: T1, His-MBP-RGNEF^1–275; test: SPR; TDP-43^101–261 with or without the F4L mutations against NF242 (Supplementary Fig. 6A and B); buffer not stated; both purified
[3] = target: T2, NF242-Δ77–79_P81G (human) (UniProt Q8N1W1); test: split reporter; NanoBiT (Promega) in living HEK293T cells, LgBiT and SmBiT fusions, luciferase read 48 h after transfection with Nano-Glo Live Cell Assay
T2 sequence: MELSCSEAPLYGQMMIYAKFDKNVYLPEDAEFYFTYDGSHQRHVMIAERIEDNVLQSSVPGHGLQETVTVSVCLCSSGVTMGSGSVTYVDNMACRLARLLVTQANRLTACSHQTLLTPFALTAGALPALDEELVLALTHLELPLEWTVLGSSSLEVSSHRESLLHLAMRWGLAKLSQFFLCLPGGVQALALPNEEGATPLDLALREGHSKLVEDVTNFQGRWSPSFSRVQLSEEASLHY

| Substance | binding [1] | also measured |
| --- | --- | --- |
| His-RRM-2 (from UniProt Q13148 177-262) (domain or fragment) | binds weakly | – |
| His-TDP-43^101–261 (from UniProt Q13148 101-261) (domain or fragment) | – | binding [2]: binds |
| His-TDP-43^1–102 (from UniProt Q13148 1-102) (domain or fragment) | no binding | – |
| TDP-43^wt with the luciferase subunit fused to its C-terminal end (from UniProt Q13148 1-414) | – | binding [3]: no binding |
